These results are taken from the supplement of paper PMC10338343.

± gives the standard deviation. The list shows a part of the results, in another mix than the full data. Many of these values have a large error.

The subject of this experiment is MILI (PIWIL2) piRISC loaded with piRNA #1 (26 nt). As to the kind of experiment: pre-steady-state target cleavage rate (min^-1); MIWI and MILI are mouse PIWI proteins and EfPiwi is from a freshwater sponge; tags in brackets are library labels; higher = faster piRNA-guided slicing of the target. As to conditions: guide: piRNA #1 5'p-UGAGGUAGUAGGUUGUAUAGUAUCCA; auxiliary factor: 500 nM mouse GTSF1. Put shortly: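 Cleave-'n-Seq reactions paired 0.1 nM transcribed, DNA-blocked target RNA library with 1 nM active affinity-purified piRISC holding one synthetic guide, plus or minus 500 nM GTSF1 partner protein, in HEPES–potassium acetate buffer at 33 °C for 0–8 or 0–960 min. After sequencing of uncleaved targets and normalisation to depth and weakly complementary targets, the pre-steady-state cleavage rate was taken from a burst-and-steady-state fit. Three trials were pooled, and k3 was capped at 0.0001 min^-1.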
As to GGAGACGAUACUUUACAACGUACUACCUCA, the “pre-steady-state target cleavage rate” value was determined as 0.0294 ± 0.0045.

For GGAGACCAUACGAUACAACCUACUACCUCA, the “pre-steady-state target cleavage rate” value was determined as 0.255 ± 0.028.

Take GGAGAGGUUACUAUACAACCUAGUACCUCA: the “pre-steady-state target cleavage rate” value was found to be 0.00117 ± 0.007.

Turning to GGAGAGGAUACUAUAGAUCCUACUACCUCA, the “pre-steady-state target cleavage rate” value stood at 0.242 ± 0.024.

Consider “GGAGACCUAUGAUUACAACCUACUUGGAGA [g7:g17:cont:t1A]”, for which the “pre-steady-state target cleavage rate” value came to 0.000576 ± 0.0089.

With GGAGACCUAUGAUAUGUUCCUACUACGAGA, the “pre-steady-state target cleavage rate” value stood at 0.000319 ± 0.013.

As for GGAGACCUAUCUAUACAUCCUACUACCUCA, the “pre-steady-state target cleavage rate” value amounted to 0.182 ± 0.018.

As for GGAGACGAUACUAUACAACCAACUAGCUCA, the “pre-steady-state target cleavage rate” value stood at 0.00312 ± 0.0048.

Turning to GGAGACCAUACUAUACAACCUACUUCCACA, the “pre-steady-state target cleavage rate” value came to 0.0785 ± 0.018.

On to “GGAGACCUAUGAAUACAACCUAGAUGGAGA [g9:g18:cont:t1A]”, for which the “pre-steady-state target cleavage rate” value was found to be 0.000636 ± 0.0066.

Turning to GGAGACCUAACUAUACAACCAUGUACCUCA, the “pre-steady-state target cleavage rate” value amounted to 0.000727 ± 0.015.

As to GGAGACCUAUGAAUACAACCUACUAGGACA, the “pre-steady-state target cleavage rate” value came out at 0.000407 ± 0.017.

As for GGAGACCAUACUAUACACACCUACUACCUCA, the “pre-steady-state target cleavage rate” value was found to be 0.00242 ± 0.0055.

Turning to GGAGACCUAUCUAUACAACUCUACUACCUCA, the “pre-steady-state target cleavage rate” value turned out to be 0.000605 ± 0.0054.

For the sequence GGAGUGGAUUCUAUUCAACCUACUACCUCA, the “pre-steady-state target cleavage rate” value was 0.165 ± 0.008.

On to GGAGAGGAUACUAUACCAACCUACUACCUCA, for which the “pre-steady-state target cleavage rate” value came to 0.0443 ± 0.0084.

In the case of GGAGACCUAUGAUAACAACCUAGUACCUGA, the “pre-steady-state target cleavage rate” value was 0.000119 ± 0.029.
